According to PMC12151214:
Results are given in words; binding and its absence hold for the method and conditions named. Binding seen in cells or lysates may run through a third protein. Some binding calls cover weakened binding; strength is not graded here. For some assays here: Where a sequence is shown, tags or fusion partners need not be part of it. Blank lines part the entries; values can stand above or below the substance they belong to.

Sequences of proteins named here, by UniProt entry; tags and fusion partners are left off. A change or cut given only in a name is not applied to a line headed by its entry.
UniProt P17096: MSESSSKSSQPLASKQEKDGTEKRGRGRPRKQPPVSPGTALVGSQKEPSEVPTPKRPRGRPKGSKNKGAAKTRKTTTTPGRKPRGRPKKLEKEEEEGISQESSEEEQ
UniProt Q96DE0: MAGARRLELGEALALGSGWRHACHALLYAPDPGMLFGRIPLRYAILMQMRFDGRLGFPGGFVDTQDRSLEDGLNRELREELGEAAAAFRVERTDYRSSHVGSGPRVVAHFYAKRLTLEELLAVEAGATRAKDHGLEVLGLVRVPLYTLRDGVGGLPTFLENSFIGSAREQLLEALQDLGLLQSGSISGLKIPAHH
UniProt P09874: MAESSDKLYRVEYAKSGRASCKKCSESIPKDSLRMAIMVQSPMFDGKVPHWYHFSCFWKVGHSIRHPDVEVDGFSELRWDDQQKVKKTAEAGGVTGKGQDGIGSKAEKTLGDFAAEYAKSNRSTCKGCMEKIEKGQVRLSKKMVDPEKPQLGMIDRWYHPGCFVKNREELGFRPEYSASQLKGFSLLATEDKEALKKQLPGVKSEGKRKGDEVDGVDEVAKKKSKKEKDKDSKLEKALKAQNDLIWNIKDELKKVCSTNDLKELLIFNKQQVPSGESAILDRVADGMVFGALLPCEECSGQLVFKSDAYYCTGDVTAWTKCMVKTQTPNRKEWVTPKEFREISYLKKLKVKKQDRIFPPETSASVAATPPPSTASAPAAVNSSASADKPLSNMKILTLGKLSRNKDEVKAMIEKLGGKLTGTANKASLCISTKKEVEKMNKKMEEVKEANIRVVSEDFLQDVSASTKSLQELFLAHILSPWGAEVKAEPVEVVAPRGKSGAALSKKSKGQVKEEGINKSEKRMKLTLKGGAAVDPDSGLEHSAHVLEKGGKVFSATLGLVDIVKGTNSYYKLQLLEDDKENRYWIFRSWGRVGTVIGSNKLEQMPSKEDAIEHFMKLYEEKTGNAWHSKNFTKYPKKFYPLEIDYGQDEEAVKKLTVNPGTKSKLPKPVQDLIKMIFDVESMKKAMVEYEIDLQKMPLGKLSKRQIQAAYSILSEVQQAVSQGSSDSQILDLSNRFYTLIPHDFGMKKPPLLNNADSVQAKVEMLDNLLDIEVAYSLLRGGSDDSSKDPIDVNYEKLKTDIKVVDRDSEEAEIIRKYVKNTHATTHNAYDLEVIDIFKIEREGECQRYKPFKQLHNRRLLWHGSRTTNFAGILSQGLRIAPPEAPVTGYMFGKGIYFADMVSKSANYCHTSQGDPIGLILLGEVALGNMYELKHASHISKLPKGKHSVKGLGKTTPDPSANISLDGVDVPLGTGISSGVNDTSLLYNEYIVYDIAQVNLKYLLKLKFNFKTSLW
UniProt Q9NVI1: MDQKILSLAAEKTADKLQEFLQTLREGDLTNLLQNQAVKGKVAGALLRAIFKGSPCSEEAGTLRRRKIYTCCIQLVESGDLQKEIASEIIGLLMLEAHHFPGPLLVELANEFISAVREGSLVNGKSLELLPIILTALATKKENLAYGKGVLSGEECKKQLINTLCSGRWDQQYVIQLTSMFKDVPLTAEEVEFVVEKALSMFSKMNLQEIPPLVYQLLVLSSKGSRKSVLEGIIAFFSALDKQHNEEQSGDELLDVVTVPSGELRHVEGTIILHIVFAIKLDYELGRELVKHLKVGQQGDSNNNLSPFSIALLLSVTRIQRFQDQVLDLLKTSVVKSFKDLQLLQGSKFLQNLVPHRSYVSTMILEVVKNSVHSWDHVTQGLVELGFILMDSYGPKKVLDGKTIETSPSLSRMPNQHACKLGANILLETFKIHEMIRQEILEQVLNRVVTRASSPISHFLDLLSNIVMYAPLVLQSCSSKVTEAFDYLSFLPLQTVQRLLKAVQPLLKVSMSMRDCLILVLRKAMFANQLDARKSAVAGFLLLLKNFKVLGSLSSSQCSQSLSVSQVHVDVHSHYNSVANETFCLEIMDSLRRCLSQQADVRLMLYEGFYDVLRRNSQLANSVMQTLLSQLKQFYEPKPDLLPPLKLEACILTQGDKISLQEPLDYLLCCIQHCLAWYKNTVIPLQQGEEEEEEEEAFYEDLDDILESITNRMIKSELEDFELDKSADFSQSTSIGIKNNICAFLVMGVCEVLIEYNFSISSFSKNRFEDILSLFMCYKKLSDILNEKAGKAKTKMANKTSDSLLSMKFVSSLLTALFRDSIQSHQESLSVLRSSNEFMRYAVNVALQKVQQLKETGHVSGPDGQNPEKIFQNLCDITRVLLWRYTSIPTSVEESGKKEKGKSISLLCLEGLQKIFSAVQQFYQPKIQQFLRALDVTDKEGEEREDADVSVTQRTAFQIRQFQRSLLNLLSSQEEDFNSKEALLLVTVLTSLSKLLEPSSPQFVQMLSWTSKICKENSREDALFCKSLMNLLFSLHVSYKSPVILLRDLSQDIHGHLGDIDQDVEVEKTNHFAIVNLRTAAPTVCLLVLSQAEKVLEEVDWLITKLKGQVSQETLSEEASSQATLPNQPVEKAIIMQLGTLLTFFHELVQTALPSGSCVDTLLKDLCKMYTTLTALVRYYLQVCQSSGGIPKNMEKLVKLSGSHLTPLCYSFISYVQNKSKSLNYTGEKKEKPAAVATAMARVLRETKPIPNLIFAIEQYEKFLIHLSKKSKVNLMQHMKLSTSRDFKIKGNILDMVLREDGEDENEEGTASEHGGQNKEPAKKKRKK
UniProt Q9BXW9: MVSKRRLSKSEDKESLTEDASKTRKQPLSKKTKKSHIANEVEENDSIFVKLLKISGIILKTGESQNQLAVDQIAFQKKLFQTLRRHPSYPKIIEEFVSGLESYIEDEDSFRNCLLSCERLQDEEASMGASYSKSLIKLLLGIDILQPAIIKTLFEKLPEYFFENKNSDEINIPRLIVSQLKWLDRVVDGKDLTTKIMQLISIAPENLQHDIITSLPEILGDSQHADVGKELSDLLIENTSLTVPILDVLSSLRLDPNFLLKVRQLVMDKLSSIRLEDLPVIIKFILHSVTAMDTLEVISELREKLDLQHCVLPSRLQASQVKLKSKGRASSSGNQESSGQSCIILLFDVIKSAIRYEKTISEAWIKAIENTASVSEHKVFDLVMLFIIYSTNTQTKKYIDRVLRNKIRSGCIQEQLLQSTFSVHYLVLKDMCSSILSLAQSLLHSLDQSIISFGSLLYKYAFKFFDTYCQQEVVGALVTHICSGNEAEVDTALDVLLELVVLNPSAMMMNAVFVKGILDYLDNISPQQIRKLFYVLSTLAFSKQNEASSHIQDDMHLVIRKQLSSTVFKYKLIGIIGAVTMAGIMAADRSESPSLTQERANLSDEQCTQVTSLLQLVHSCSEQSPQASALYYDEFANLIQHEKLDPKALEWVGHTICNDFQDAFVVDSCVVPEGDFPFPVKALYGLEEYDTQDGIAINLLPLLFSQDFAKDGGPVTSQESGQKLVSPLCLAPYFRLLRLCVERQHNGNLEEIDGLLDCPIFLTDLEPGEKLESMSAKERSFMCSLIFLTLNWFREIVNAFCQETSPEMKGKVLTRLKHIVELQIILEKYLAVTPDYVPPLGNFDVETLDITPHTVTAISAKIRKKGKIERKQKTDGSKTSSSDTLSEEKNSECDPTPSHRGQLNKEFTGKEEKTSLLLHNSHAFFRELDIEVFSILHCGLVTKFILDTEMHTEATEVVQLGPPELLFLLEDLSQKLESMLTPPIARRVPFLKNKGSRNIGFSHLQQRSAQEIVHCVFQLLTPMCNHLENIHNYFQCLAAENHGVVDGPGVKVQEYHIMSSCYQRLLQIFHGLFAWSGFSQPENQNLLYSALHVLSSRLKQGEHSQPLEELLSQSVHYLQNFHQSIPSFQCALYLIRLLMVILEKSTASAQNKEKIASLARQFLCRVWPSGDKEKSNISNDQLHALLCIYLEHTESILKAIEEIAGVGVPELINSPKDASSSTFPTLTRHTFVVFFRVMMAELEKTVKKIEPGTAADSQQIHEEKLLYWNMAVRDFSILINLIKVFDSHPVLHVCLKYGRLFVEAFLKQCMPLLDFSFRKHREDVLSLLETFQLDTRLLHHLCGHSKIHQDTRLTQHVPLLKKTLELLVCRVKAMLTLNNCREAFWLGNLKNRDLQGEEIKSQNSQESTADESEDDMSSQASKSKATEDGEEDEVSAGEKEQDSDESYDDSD
UniProt Q06609: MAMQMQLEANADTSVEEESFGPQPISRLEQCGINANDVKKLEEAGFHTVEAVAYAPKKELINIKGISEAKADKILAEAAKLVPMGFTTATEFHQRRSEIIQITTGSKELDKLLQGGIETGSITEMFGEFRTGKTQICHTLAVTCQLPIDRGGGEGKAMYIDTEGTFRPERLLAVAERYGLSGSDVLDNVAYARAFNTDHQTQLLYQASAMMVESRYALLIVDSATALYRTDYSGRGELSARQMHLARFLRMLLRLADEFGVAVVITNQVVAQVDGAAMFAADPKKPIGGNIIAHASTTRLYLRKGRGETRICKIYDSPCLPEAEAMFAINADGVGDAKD

Tests used:
HA-CHFR (human) = molecular target: T1, HA-CHFR (human) (UniProt Q96EP1); test: co-IP; HEK293T cells transfected with HA-CHFR and SFB-HMGA1 (WT or E47/50Q); lysate on anti-HA beads, western blot
T1 sequence: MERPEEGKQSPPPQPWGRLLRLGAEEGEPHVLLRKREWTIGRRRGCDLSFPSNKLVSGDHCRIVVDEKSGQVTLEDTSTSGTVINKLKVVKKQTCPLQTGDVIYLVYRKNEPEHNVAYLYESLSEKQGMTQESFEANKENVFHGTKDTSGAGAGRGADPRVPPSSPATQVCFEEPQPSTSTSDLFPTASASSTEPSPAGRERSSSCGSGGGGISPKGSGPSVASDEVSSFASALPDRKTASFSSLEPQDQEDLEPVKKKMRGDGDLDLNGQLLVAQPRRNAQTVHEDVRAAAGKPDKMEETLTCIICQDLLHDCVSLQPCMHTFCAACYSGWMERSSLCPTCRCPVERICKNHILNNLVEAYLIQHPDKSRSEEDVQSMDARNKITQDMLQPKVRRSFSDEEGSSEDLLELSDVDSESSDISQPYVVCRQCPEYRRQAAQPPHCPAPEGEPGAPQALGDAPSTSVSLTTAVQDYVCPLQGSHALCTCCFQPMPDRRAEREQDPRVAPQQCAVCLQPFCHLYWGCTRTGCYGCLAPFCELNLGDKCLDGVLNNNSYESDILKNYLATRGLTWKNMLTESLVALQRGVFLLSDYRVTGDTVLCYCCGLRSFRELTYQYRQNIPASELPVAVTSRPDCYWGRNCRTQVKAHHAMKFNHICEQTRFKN

[1] = molecular target: HMGA1 (high mobility group A1) of the co-IP in Fig. S1J (human) (UniProt P17096); test: co-IP; validation of BioGRID interactors of HMGA1 (Fig. S1J); cells, plasmids and beads not shown
[2] = molecular target: T2, CHFR, endogenous in HeLa cells (human (endogenous in HeLa)) (UniProt Q96EP1); test: co-IP; endogenous proteins, HeLa lysate, anti-CHFR antibodies against anti-IgG control, western blot
T2 sequence: T1 sequence

[3] = molecular target: SFB-HMGA1 (high mobility group A1), expressed in HeLa cells (human) (UniProt P17096); test: co-IP; HeLa cells transfected 24 h, untreated or treated with 4 mM HU for 3 h; lysate (NETN buffer with benzonase) on anti-S beads, western blot
[4] = molecular target: T3, CHFR of the exogenous co-IP (Figure 6A), expressed in HEK293T cells (human) (UniProt Q96EP1); test: co-IP; HEK293T cells transiently transfected 24 h; lysate (NETN buffer with benzonase) on anti-S beads overnight at 4 °C, western blot
T3 sequence: T1 sequence

[5] = molecular target: NUDT16, expressed in HEK293T cells (human) (UniProt Q96DE0); test: as above
[6] = molecular target: PARP1, expressed in HEK293T cells (human) (UniProt P09874); test: as above
SFB-CHFR (WT) (human) = molecular target: T4, SFB-CHFR (WT) (human) (UniProt Q96EP1); test: as above
T4 sequence: T1 sequence

[7] = molecular target: NUDT16, endogenous in HepG2 cells (human (endogenous in HepG2)) (UniProt Q96DE0); test: co-IP; endogenous proteins, HepG2 lysate, anti-NUDT16 antibodies against anti-IgG control, western blot

- binding (HA-CHFR (human)): binds
Substance: SFB-HMGA1 (WT), expressed in HEK293T cells (from UniProt P17096 1-107)

- binding [4]: binds
- binding [5]: binds
- binding [6]: binds
- binding (SFB-CHFR (WT) (human)): binds
Substance: HMGA1 (high mobility group A1) in HEK293T lysate, co-IPs with anti-S beads (from UniProt P17096 1-107)

- binding [7]: binds
Substance: HMGA1, endogenous in HepG2 cells (from UniProt P17096 1-107)

More lines, now with the values behind:

Substance: FANCI (from UniProt Q9NVI1 1-1328)
- binding [1]: binds

Substance: HMGA1, endogenous in HeLa cells (from UniProt P17096 1-107)
- binding [2]: binds

Substance: FANCD2 (from UniProt Q9BXW9 1-1451)
- binding [1]: binds
- binding [3]: binds

Substance: RAD51 (from UniProt Q06609 1-339)
- binding [1]: binds
